Measurements reported in PubChem BioAssay AID1259308 (NCATS, 2017)
In all, the deposit lists about 59,000 reagents; this is an unselected part. About 1,510 of them (2.6%) were called active. 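Calls use total luciferase alone and ignore viability, so some active siRNAs may act by altering cell number.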 The numbers tell different reagents against one gene apart.

- Aim: 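Candidate targets for better recombinant protein yield in mammalian cells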 (primary screen)
- Cell system: human HEK293 embryonic kidney cells stably expressing firefly luciferase (HEK-CMV-Luc2-Hygro)
- Knock-down reagent: single siRNA against human genes, 0.8 pmol siRNA per well
- Timing: 72 h
- Detection: 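Luciferase light (ONE-Glo) measured on one replicate plate set and viability (CellTiter-Glo) on the other, scaled to a negative control siRNA, with robust z-scores and luciferase per cell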
- Direction: total luciferase, z-score and total luciferase, % of control: higher = more reporter protein produced; luciferase per cell, z-score: higher = more reporter output per viable cell; viable cells, % of control: higher = more viable cells
- Call rule: 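Active when the median/MAD z-score for overall luciferase is greater than 3; a gene was taken forward for validation with new siRNAs if at least two of its three siRNAs passed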
- Meaning of the calls: active = raised luciferase; inactive = no rise

| target | reagent | total luciferase, z-score | total luciferase, % of control | luciferase per cell, z-score | viable cells, % of control | Outcome |
| --- | --- | --- | --- | --- | --- | --- |
| LURAP1L | 1 | -0.469 | 72.6 | 0.803 | 65.6 | inactive |
| LURAP1L | 2 | -0.843 | 65.1 | -1.01 | 94.8 | inactive |
| LURAP1L | 3 | 0.454 | 90.9 | 0.707 | 84.3 | inactive |
| TRARG1 | 1 | 1.42 | 110 | 4.81 | 34.7 | inactive |
| TRARG1 | 2 | 1.25 | 107 | 0.941 | 93.1 | inactive |
| TRARG1 | 3 | -0.672 | 68.5 | -0.472 | 86.7 | inactive |
| TSSK4 | 1 | -0.566 | 70.6 | -0.77 | 96.7 | inactive |
| TSSK4 | 2 | 0.0702 | 83.3 | -0.502 | 106 | inactive |
| TSSK4 | 3 | -0.647 | 69 | -1.24 | 107 | inactive |
| COA1 | 1 | -0.246 | 77 | -0.973 | 111 | inactive |
| COA1 | 2 | 0.592 | 93.7 | 0.692 | 87.2 | inactive |
| COA1 | 3 | 1.15 | 105 | 0.747 | 96.2 | inactive |
| TGFBR2 | 1 | 0.266 | 87.2 | 2.33 | 52.7 | inactive |
| TGFBR2 | 2 | -0.209 | 77.7 | -0.171 | 90.9 | inactive |
| TGFBR2 | 3 | 0.423 | 90.3 | 0.235 | 94.8 | inactive |
| KRTAP2-1 | 1 | 0.86 | 99 | 0.166 | 106 | inactive |
| KRTAP2-1 | 2 | 0.899 | 99.8 | 0.56 | 96.2 | inactive |
| KRTAP2-1 | 3 | 0.601 | 93.8 | -0.0183 | 105 | inactive |
| ZDHHC8 | 1 | -0.639 | 69.2 | -0.546 | 89.2 | inactive |
| ZDHHC8 | 2 | 0.379 | 89.4 | -0.0875 | 102 | inactive |
| ZDHHC8 | 3 | 1.31 | 108 | 1.32 | 85.1 | inactive |
| MAPK7 | 1 | -1.52 | 51.6 | -1.66 | 89.2 | inactive |
| MAPK7 | 2 | 0.0727 | 83.3 | -0.426 | 104 | inactive |
| MAPK7 | 3 | -0.621 | 69.5 | -0.26 | 83.2 | inactive |
| NTRK1 | 1 | 1.16 | 105 | 1.29 | 83.5 | inactive |
| NTRK1 | 2 | 1.01 | 102 | 1.13 | 84.7 | inactive |
| NTRK1 | 3 | 0.124 | 84.4 | 0.472 | 83.2 | inactive |
| DICER1 | 1 | -1.13 | 59.5 | -1.46 | 97.6 | inactive |
| DICER1 | 2 | -0.0262 | 81.4 | -0.33 | 99.2 | inactive |
| DICER1 | 3 | 2 | 122 | 1.89 | 82.6 | inactive |
| STRN3 | 1 | -0.687 | 68.2 | 0.297 | 70.5 | inactive |
| STRN3 | 2 | -1.78 | 46.4 | -0.465 | 58.7 | inactive |
| STRN3 | 3 | 0.298 | 87.8 | -0.149 | 102 | inactive |
| PIGT | 1 | 0.588 | 93.6 | -0.051 | 106 | inactive |
| PIGT | 2 | -0.473 | 72.5 | -0.517 | 92.8 | inactive |
| PIGT | 3 | -0.376 | 74.4 | -0.674 | 99.3 | inactive |
| SLC35G5 | 1 | -1.26 | 56.9 | -1.21 | 87.4 | inactive |
| SLC35G5 | 2 | 0.507 | 92 | 2.19 | 57.8 | inactive |
| SLC35G5 | 3 | -0.392 | 74.1 | -0.345 | 90.7 | inactive |
| MAP3K12 | 1 | 0.572 | 93.3 | -0.106 | 107 | inactive |
| MAP3K12 | 2 | -0.129 | 79.3 | 0.389 | 80 | inactive |
| MAP3K12 | 3 | 0.507 | 92 | -0.0173 | 103 | inactive |
| MS4A15 | 1 | 2.48 | 131 | 2.12 | 84 | inactive |
| MS4A15 | 2 | 4.28 | 167 | 3.15 | 81.5 | active |
| MS4A15 | 3 | 0.698 | 95.8 | 0.559 | 92.4 | inactive |
| RARS2 | 1 | -0.829 | 65.4 | -1.04 | 96 | inactive |
| RARS2 | 2 | 0.439 | 90.6 | 0.183 | 96.5 | inactive |
| RARS2 | 3 | -1.03 | 61.3 | -1.63 | 105 | inactive |
| TRABD2A | 1 | 0.19 | 85.7 | -0.389 | 106 | inactive |
| TRABD2A | 2 | 0.696 | 95.7 | 0.67 | 89.7 | inactive |
| TRABD2A | 3 | 1.16 | 105 | 0.72 | 97 | inactive |
| CFDP1 | 1 | 0.42 | 90.2 | -0.0904 | 103 | inactive |
| CFDP1 | 2 | -0.743 | 67.1 | -0.647 | 88.9 | inactive |
| CFDP1 | 3 | -1.22 | 57.6 | -1.14 | 86.9 | inactive |
| ZKSCAN5 | 1 | 0.945 | 101 | 0.49 | 98.9 | inactive |
| ZKSCAN5 | 2 | -1.17 | 58.7 | -0.695 | 78.8 | inactive |
| ZKSCAN5 | 3 | 2.01 | 122 | 1.43 | 93.4 | inactive |
| ZNF334 | 1 | -0.0738 | 80.4 | -0.155 | 93.6 | inactive |
| ZNF334 | 2 | -0.815 | 65.7 | -0.331 | 80.1 | inactive |
| ZNF334 | 3 | -1.15 | 59 | 0.413 | 59.1 | inactive |
| RAMP3 | 1 | 0.568 | 93.2 | 0.587 | 89.2 | inactive |
| RAMP3 | 2 | 0.614 | 94.1 | -0.197 | 111 | inactive |
| RAMP3 | 3 | 1.45 | 111 | 1.6 | 81.2 | inactive |
| SPATA31E2P | 1 | -1.05 | 61.1 | -0.627 | 80.5 | inactive |
| SPATA31E2P | 2 | -0.374 | 74.4 | -0.256 | 89 | inactive |
| SPATA31E2P | 3 | -3.23 | 17.5 | -2.97 | 42.9 | inactive |
| DERL2 | 1 | 0.953 | 101 | 0.445 | 100 | inactive |
| DERL2 | 2 | -0.419 | 73.5 | -0.332 | 89.7 | inactive |
| DERL2 | 3 | -2.35 | 35.1 | -1.83 | 63.6 | inactive |
| PCDH12 | 1 | 0.132 | 84.5 | 1.74 | 59.8 | inactive |
| PCDH12 | 2 | 2.93 | 140 | 2.55 | 80 | inactive |
| PCDH12 | 3 | 0.145 | 84.8 | -0.209 | 100 | inactive |
| PARN | 1 | -0.947 | 63 | -1.14 | 95.2 | inactive |
| PARN | 2 | -1.54 | 51.2 | -1.55 | 86 | inactive |
| PARN | 3 | 0.36 | 89 | 0.432 | 88.8 | inactive |

Entries above whose gene name begins with Z or z (9):
| target | reagent | total luciferase, z-score | total luciferase, % of control | luciferase per cell, z-score | viable cells, % of control | Outcome |
| --- | --- | --- | --- | --- | --- | --- |
| ZDHHC8 | 1 | -0.639 | 69.2 | -0.546 | 89.2 | inactive |
| ZDHHC8 | 2 | 0.379 | 89.4 | -0.0875 | 102 | inactive |
| ZDHHC8 | 3 | 1.31 | 108 | 1.32 | 85.1 | inactive |
| ZKSCAN5 | 1 | 0.945 | 101 | 0.49 | 98.9 | inactive |
| ZKSCAN5 | 2 | -1.17 | 58.7 | -0.695 | 78.8 | inactive |
| ZKSCAN5 | 3 | 2.01 | 122 | 1.43 | 93.4 | inactive |
| ZNF334 | 1 | -0.0738 | 80.4 | -0.155 | 93.6 | inactive |
| ZNF334 | 2 | -0.815 | 65.7 | -0.331 | 80.1 | inactive |
| ZNF334 | 3 | -1.15 | 59 | 0.413 | 59.1 | inactive |
